We go through four sequences from article PMC12881857, “The MabZIP5–MaMYB69 module cooperates with MaERF55 to modulate banana fruit ripening via cell wall degradation”.

Data set [1] has as its system GST-MabZIP5 (banana). Kind of data set: competition with a labelled probe. As to conditions: 50-fold excess mutant competitor vs N14; Chemiluminescent EMSA Kit (Beyotime); pH and temperature not stated; recombinant protein; protein details: GST (N-term, pGEX-4T-1). On the technique in general: Mobility shift assays separate free from complexed probe on a gel.
Data set [2] relates to GST-MabZIP5 (banana). The data set can be described thus: EMSA. The settings on record: Chemiluminescent EMSA Kit (Beyotime), pH and temperature not stated, recombinant protein, protein details: GST (N-term, pGEX-4T-1).

For at least one entry, the source does not settle the construct or the ends of the probe. For some of these results: No signal at the amounts used counts as a negative. For some of these results: The comparison behind a weaker result is the experiment's own reference, which may not be listed here.

Take “CTTCCATTGTATCGCAGGCGTCAAAAAAGCTTTTGGAGGCTGTCTGCATG (double strand) [MaMYB69 promoter P2 mutant]”: the binding result with GST-MabZIP5 (banana) [1] is given as “no binding”.
On to “CTTCCATTGTATCGCAGGCGTCTACGTAGCTTTTGGAGGCTGTCTGCATG (double strand) [MaMYB69 promoter P2 (A-box)]”, for which, in the data set on GST-MabZIP5 (banana) [2] (label: biotin), the binding result is on record as “binds”.
In the case of “GAGAGAGAGAGGTGGAAGACGACGTCCCCCACCTTTGCTTCCTCGCTTGG (double strand) [MaMYB69 promoter P1]”, the binding result with GST-MabZIP5 (banana) [2] (very faint band, label: biotin) is on record as “binds more weakly”.
Consider “GCGAGGGGAATGGTGGGAAGCTCACGTGGGAGAAACATGCGCTGCCGGCC (double strand) [MaPL1 promoter bZIP5 probe (G-box)]”, for which the binding result in the data set on GST-MabZIP5 (banana) [2] was “binds”.
